According to PubChem BioAssay AID2685 (National Center for Advancing Translational Sciences (NCATS), 2010):
Some of the results follow. The main result of the screen is listed elsewhere. These columns were measured beside it and carry no call. Compounds called inactive in the main read-out are mostly missing here. Potencies come from curve fits of mixed quality, noted in brackets.

Experiment: qHTS Assay for Lipid Storage Modulators in Drosophila S3 Cells;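 as to cell number change: cells counted by Cell Tracker Red CMTPX staining in the red channel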
Settings: BODIPY lipid droplet fluorescence, 18-24 h; for cell number change: measured here: cell count max response, cells fed with added oleic acid
Outline: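 Laser-scanning cytometry quantifies lipid droplet accumulation (500–530 nm total intensity; droplet/cell object ratio) in oleic acid-fed (400 uM added) Drosophila S3 cells treated with a concentration series. 20 uM Triacsin C defined 100% inhibition.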

[1] = measured here: cell number channel AC50, cells fed with added oleic acid
[2] = measured here: lipid fluorescence (Fed channel) AC50, cells fed with added oleic acid

SMILES | AC50 [1] | AC50 [2] | cell number change [%]
Cc1ccc(-c2nnc(N3CCN(c4ccccn4)CC3)c3ccccc23)cc1 | 2.06 µM [rising, partial curve] | 1.84 µM [rising, partial curve] | –
O=[N+]([O-])c1cccc(-c2nnc3ccccn23)c1 | 36.6 µM [falling, partial curve, poor fit] | – | -46.1
CNCC(O)COc1ccccc1 (stereo not drawn) | 0.731 µM [falling, full curve] | 6.51 µM [falling, single point] | –
C=CCOc1c2ccc(C(=O)NCc3ccc(OC)cc3)cc2nn1C | 20.6 µM [falling, single point] | – | -36.4
Cc1ccn(CC(=O)N2CCCC(N3CCN(c4ccccc4F)CC3)C2)n1 (stereo not drawn) | – | – | 24.9
O=C1c2ccccc2C(=O)N1/N=C/c1ccc(O)c(O)c1O | – | 6.51 µM [falling, single point] | -11.3
CCOC(=O)C1CCCN(C(=O)CCNS(=O)(=O)c2ccc(Br)cc2)C1 (stereo not drawn) | – | 2.59 µM [falling, partial curve, poor fit] | 14.4
Cc1ccc(C)c(N2CCN(C(=O)c3ccc(N4CCCC4=O)cc3)CC2)c1 | – | 6.51 µM [rising, single point] | 21
O=C1c2ccccc2C(=O)N1c1ccc(Br)c2cccnc12 | 23.1 µM [rising, single point] | – | 61.1
CC(=O)Nc1ccc(Nc2nc(C(F)(F)F)nc3c2nnn3Cc2ccccc2Cl)cc1 | 10.3 µM [falling, partial curve] | 1.84 µM [rising, partial curve] | -41.7
CCOc1cc(/C=N/NC(=O)Cc2ccc(C(F)(F)F)cc2[N+](=O)[O-])ccc1O | – | – | 6.86
Cc1ccc2c(c1)c1c3n2CCCN(Cc2ccccc2)C3CCC1 (stereo not drawn) | – | 25.9 µM [falling, single point] | -19.3
CCOC(=O)NC(=O)c1cn(C(CC)CO)c(=O)[nH]c1=O (stereo not drawn) | – | 29.1 µM [falling, single point] | 12.1
CN(Cc1nc2ccccc2c(=O)[nH]1)C(=O)c1cccc(S(=O)(=O)N2CCCCCC2)c1 | – | 6.51 µM [rising, single point] | 4.95
CN(C)C(=O)COc1ccc(S(=O)(=O)c2ccc(OCC(=O)N(C)C)cc2)cc1 | – | – | 23.4
O=C(c1cccs1)n1nc(NCc2ccccc2)nc1NCc1ccccc1 | 6.51 µM [rising, single point] | 0.82 µM [rising, full curve] | -2.73
S=C(NCCCN1CCOCC1)Nc1ccc(-c2nc3ccccc3[nH]2)cc1 | 5.17 µM [rising, full curve, poor fit] | – | 83.5

Two compounds drawn at random from the list so far:
SMILES | AC50 [1] | AC50 [2] | cell number change [%]
O=C(c1cccs1)n1nc(NCc2ccccc2)nc1NCc1ccccc1 | 6.51 µM [rising, single point] | 0.82 µM [rising, full curve] | -2.73
CNCC(O)COc1ccccc1 (stereo not drawn) | 0.731 µM [falling, full curve] | 6.51 µM [falling, single point] | –
